Data: article PMC3119658
Results are given in words; binding and its absence hold for the method and conditions named. In cells and extracts the contact can be indirect. Some results given as binding are weak or reduced against the parent protein; the word gives no strength.

By UniProt entry, the sequences of proteins in these tests, tags left out. Residues count along the entry.
UniProt P25445, residues 26-335: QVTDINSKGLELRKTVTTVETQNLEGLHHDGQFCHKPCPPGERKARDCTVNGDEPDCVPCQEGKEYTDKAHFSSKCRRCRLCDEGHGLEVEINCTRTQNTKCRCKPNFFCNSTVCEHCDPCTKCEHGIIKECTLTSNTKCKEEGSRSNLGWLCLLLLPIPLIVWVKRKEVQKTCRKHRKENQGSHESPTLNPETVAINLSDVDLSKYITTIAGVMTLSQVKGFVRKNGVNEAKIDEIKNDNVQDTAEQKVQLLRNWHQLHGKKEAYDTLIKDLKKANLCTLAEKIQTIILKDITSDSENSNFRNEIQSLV
UniProt P07947: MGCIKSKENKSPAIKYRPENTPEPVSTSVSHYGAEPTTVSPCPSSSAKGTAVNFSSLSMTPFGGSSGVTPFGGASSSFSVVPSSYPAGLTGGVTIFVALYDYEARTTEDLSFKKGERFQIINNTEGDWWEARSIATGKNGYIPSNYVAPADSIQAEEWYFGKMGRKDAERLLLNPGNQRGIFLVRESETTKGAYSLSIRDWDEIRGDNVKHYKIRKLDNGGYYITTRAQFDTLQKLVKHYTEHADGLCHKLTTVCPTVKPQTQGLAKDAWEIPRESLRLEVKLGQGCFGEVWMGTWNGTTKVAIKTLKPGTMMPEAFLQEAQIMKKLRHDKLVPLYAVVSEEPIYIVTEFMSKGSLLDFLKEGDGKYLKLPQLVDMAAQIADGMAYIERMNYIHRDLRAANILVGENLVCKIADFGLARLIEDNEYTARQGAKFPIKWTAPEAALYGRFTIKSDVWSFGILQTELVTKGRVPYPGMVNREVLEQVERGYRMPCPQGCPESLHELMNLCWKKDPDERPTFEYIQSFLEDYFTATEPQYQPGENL

Target: CD95 (human (endogenous in H9 and PBLs)) (UniProt P25445)
Test: co-IP; H9 T-cells and activated PBLs incubated with 100 ng/ml cl-CD95L (15 min, 4°C or 37°C), lysed, 1 µg APO1-3 added to the lysate, CD95 immunoprecipitated with protein A-sepharose beads; immunoblots

## tyrosine kinase c-yes (from UniProt P07947 1-543) (enzyme)
  binding: binds
